{"sequences": {"note": "Chains of the proteins cited; added tags and fusions are not shown.", "UniProt P05413, whole entry": "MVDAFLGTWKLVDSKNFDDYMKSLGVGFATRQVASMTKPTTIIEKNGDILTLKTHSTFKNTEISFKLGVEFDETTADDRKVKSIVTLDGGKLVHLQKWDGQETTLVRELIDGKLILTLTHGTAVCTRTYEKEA"}, "source": "paper PMC10058761", "about": "“Heart-Type Fatty Acid Binding Protein Binds Long-Chain Acylcarnitines and Protects against Lipotoxicity” (International Journal of Molecular Sciences, 2023)", "biological_target": "human FABP3 (Homo sapiens, UniProt P05413)", "test": "ITC determination of heat capacity change at 16, 25 and 37 °C", "assay_type": "binding", "conditions": "KPi with 0.1% TX; ΔH at 16, 25, 37 °C, linear regression", "note": "For part of its entries the source gives two or more results. Only these are listed. There may be further records. The records of an entry appear to be repeats on other runs, samples or individuals.", "data": [{"smiles": "CCCCCCCCCCCC(=O)O", "note": "[C12:0, laurate]", "values": [{"measurement": "ΔCp", "result": "−0.22 kcal∙mol^−1∙K^−1 and −0.21 ± 0.02 kcal∙mol^−1∙K^−1"}]}]}
